The supplement of paper PMC3682954
Where a name gives a salt, the structure may show the parent alone. ± gives the standard deviation of the averaged measurements. This is one part of the list. Single values are uncertain, as repeats are few or missing.

Tested on: RAW 264.7
Experiment: HMGB1-induced TNF-alpha production relative to HMGB1-stimulated control; higher = more TNF-alpha secretion (less inhibition)
Conditions: stimulus: HMGB1 5 ug/ml, 18 h

SMILES	HMGB1-induced TNF-alpha production (compound concentration: 3 uM)	HMGB1-induced TNF-alpha production (compound concentration: 1 ug/ml)
C#CCN(C)Cc1ccccc1	86.9%	
C#CCN(C)Cc1ccccc1 [Pargyline hydrochloride]	89.8 ± 3%	
CCCCCC(C)N (centres undefined)	79.6%	
COc1ccc2cc(CCC(C)=O)ccc2c1 [Nabumetone]	96.8 ± 26%	
Cc1cccc(/C=C/c2ccccc2)n1	102%	
O=C(O)CCC(=O)OC[C@@H](NC(=O)C(Cl)Cl)[C@H](O)c1ccc([N+](=O)[O-])cc1	89.5%	
CCn1cc(C(=O)O)c(=O)c2ccc(C)nc21	84.6%	
CCn1cc(C(=O)O)c(=O)c2ccc(C)nc21 [Nalidixic acid sodium]	120%	
CCn1cc(C(=O)O)c(=O)c2ccc(C)nc21 [Nalidixic acid sodium salt]	100%	
C[C@H]1[C@@H](O)O[C@@H]2O[C@@]3(C)CC[C@H]4[C@H](C)CC[C@@H]1[C@@]24OO3	88.9%	
COc1ccc(-c2oc3c(CC=C(C)C)c(O[C@@H]4O[C@H](CO)[C@@H](O)[C@H](O)[C@H]4O)cc(O)c3c(=O)c2O[C@@H]2O[C@@H](C)[C@H](O)[C@@H](O)[C@H]2O)cc1 [Icarrin]		84.2%
COc1ccc(-c2oc3c(CC=C(C)C)c(O[C@@H]4O[C@H](CO)[C@@H](O)[C@H](O)[C@H]4O)cc(O)c3c(=O)c2O[C@@H]2O[C@@H](C)[C@H](O)[C@@H](O)[C@H]2O)cc1	103%	
CCN(CC)CCNC(=O)c1cc(S(C)(=O)=O)ccc1OC [Tiapride hydrochloride]	101 ± 5.2%	
CCN(CC)CCNC(=O)c1cc(S(C)(=O)=O)ccc1OC	109%	
O=C(CCCN1CC=C(n2c(=O)[nH]c3ccccc32)CC1)c1ccc(F)cc1 [Droperidol]	70.3 ± 17%	
O=C(CCCN1CC=C(n2c(=O)[nH]c3ccccc32)CC1)c1ccc(F)cc1	95.4 ± 9.2%	
Oc1c(I)cc(I)c2cccnc12	102%	
CN1C2CCCC1CC(NC(=O)c1nn(C)c3ccccc13)C2 (centres undefined) [Granisetron hydrochloride]	100%	
CN1C2CCCC1CC(NC(=O)c1nn(C)c3ccccc13)C2 (centres undefined) [Granisetron]	111 ± 17%	
CN1C2CCCC1CC(NC(=O)c1nn(C)c3ccccc13)C2 (centres undefined)	102%	
CC(C)N1CCN(c2ccc(OCC3COC(Cn4cncn4)(c4ccc(Cl)cc4Cl)O3)cc2)CC1 (centres undefined) [Terconazole]	57.2%	
N=C(N)c1ccccc1 [Benzamidine hydrochloride]	77.8%	

Another view of part of the listing above.
SMILES | HMGB1-induced TNF-alpha production (compound concentration: 3 uM) | HMGB1-induced TNF-alpha production (compound concentration: 1 ug/ml)
CCn1cc(C(=O)O)c(=O)c2ccc(C)nc21 [Nalidixic acid sodium salt] | 100% | 
C[C@H]1[C@@H](O)O[C@@H]2O[C@@]3(C)CC[C@H]4[C@H](C)CC[C@@H]1[C@@]24OO3 | 88.9% | 
COc1ccc(-c2oc3c(CC=C(C)C)c(O[C@@H]4O[C@H](CO)[C@@H](O)[C@H](O)[C@H]4O)cc(O)c3c(=O)c2O[C@@H]2O[C@@H](C)[C@H](O)[C@@H](O)[C@H]2O)cc1 [Icarrin] |  | 84.2%

Additional records follow:

SMILES	HMGB1-induced TNF-alpha production (compound concentration: 3 uM)	HMGB1-induced TNF-alpha production (compound concentration: 1 ug/ml)
O=C(NCCNCC(O)COc1ccc(O)cc1)N1CCOCC1 (centres undefined) [Xamoterol hemifumarate]	108%	
O=C(NCCNCC(O)COc1ccc(O)cc1)N1CCOCC1 (centres undefined) [Xamoterol]	104%	
CCN(Cc1ccncc1)C(=O)C(CO)c1ccccc1 (centres undefined)	86.3%	
CCN(Cc1ccncc1)C(=O)C(CO)c1ccccc1 (centres undefined) [Tropicamide]	95.9 ± 20%	
CN(C)CCOC1=Cc2ccccc2Sc2ccc(Cl)cc21 [Zotepine]	66.1%	
OC(CCN1CCCCC1)(c1ccccc1)C1CC2C=CC1C2 (centres undefined)	84.2%	
OC(CCN1CCCCC1)(c1ccccc1)C1CC2C=CC1C2 (centres undefined) [Biperiden hydrochloride]	78.1 ± 15%	
Cc1ncc([N+](=O)[O-])n1CCO	94 ± 21%	
Cc1ncc([N+](=O)[O-])n1CCO [Metronidazole]	80.7 ± 3.3%	
CCN(CC)CC#CCOC(=O)C(O)(c1ccccc1)C1CCCCC1 (centres undefined)	86.3%	
CCN(CC)CC#CCOC(=O)C(O)(c1ccccc1)C1CCCCC1 (centres undefined) [Oxybutynin Chloride]	102%	
CCN(CC)CC#CCOC(=O)C(O)(c1ccccc1)C1CCCCC1 (centres undefined) [Oxybutynin chloride]	50.4%	
CC(C)c1cccc(C(C)C)c1N1C(=O)c2ccc(O)cc2C1=O	106%	
COc1ccc(C(=O)NCc2cccnc2)cc1C(=O)NCc1cccnc1 [Picotamide]	96 ± 18%	
COc1ccc(C(=O)NCc2cccnc2)cc1C(=O)NCc1cccnc1 [Picotamide monohydrate]	70.8%	
COCc1c(C(C)C)nc(C(C)C)c(/C=C/[C@@H](O)C[C@@H](O)CC(=O)O)c1-c1ccc(F)cc1 [Cerivastatin]	153%	
C=CC[C@@H]1/C=C(\C)C[C@H](C)C[C@H](OC)[C@H]2O[C@@](O)(C(=O)C(=O)N3CCCC[C@H]3C(=O)O[C@H](/C(C)=C/[C@@H]3CC[C@@H](O)[C@H](OC)C3)[C@H](C)[C@@H](O)CC1=O)[C@H](C)C[C@@H]2OC	85.8 ± 17%	
O=Nc1c(-c2c(O)[nH]c3ccccc23)[nH]c2ccccc12 [Indirubin-3'-oxime]	98.6%	
Cc1ccc(C(=O)c2cc(O)c(O)c([N+](=O)[O-])c2)cc1 [Tolcapone]	114%	
NC[C@H]1O[C@H](O[C@H]2[C@H](O[C@@H]3O[C@H](CO)[C@@H](O)[C@H]3O)[C@@H](O)[C@H](N)C[C@@H]2N)[C@H](N)[C@@H](O)[C@@H]1O [Ribostamycin sulfate salt]	90%	
NC[C@H]1O[C@H](O[C@H]2[C@H](O[C@@H]3O[C@H](CO)[C@@H](O)[C@H]3O)[C@@H](O)[C@H](N)C[C@@H]2N)[C@H](N)[C@@H](O)[C@@H]1O	72.8%	
CCCCC/C=C\C[C@@H](O)/C=C/c1cccc(C[C@@H](O)CCCCO)n1	94%	
